The other results are listed elsewhere or left out. Residues, ends and D or L forms follow the SMILES beside them. *: point of attachment. Cbz = O=C(OCc1ccccc1)*
Assays:
Assay in all cases: log2 fold change, soluble protein after heating vs DMSO (PISA); higher = thermal stabilisation; K562 cells, 10 uM, 30 min; active = over 0.2 and 3.5 SD of the protein, either way, in both replicates (recomputed)
[1] = compound: C#Cc1cccc(Nc2ncnc3cc(OCCOC)c(OCCOC)cc23)c1 [erlotinib]
Outline: (§1)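 K562 cells at 2×10^6 cells/mL were exposed to 10 μM compound for 30 min, then aliquots were heated for 3 min across 48°C-58°C, pooled, and extracted in PBS containing 0.5% NP-40 at 4°C. The supernatant after 21,000xg for 90 min was taken as soluble protein and measured by TMTpro 16plex LC-MS/MS with channel sums equalised. Thermal stability is reported relative to control samples, with values from duplicates. Fold changes are given on a log2 scale.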

The chains behind the UniProt entries cited, without tags or fusion partners. Where a name states a change or a piece, a line headed by the entry shows the natural chain unless it says otherwise.
UniProt Q9NP81: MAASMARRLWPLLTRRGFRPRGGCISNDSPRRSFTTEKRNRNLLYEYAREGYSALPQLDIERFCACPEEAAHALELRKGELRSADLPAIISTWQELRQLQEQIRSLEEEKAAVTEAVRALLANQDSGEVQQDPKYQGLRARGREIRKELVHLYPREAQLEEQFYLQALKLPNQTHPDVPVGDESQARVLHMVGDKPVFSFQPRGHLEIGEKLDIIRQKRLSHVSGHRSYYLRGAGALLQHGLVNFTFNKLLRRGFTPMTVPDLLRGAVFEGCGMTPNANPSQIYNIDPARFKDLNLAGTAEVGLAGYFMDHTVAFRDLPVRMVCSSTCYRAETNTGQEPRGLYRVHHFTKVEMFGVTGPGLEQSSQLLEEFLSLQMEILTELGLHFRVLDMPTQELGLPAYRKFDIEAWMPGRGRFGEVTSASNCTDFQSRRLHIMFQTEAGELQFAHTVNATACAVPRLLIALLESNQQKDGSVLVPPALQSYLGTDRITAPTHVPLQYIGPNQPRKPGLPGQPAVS

[2] = compound: C/C(=N\NC(=O)C1=CC(=CC=C1)S(=O)(=O)N2CCOCC2)/C3=C(C=CC(=C3)Cl)O
Outline: as §1

[3] = compound: C1=CC(=C(C=C1Cl)C2=NC3=NC=CN=C3C(=N2)NC4=CC=NC=C4)F
Outline: as §1

[4] = compound: C1=CC(=CC=C1C2=NC3=C(N2)C=C(C=C3)C(=O)N)OC4=CC=C(C=C4)Cl
Outline: as §1

[5] = compound: C1=CC2=C(C=CC(=C2)/C=C\3/C(=O)NC(=NCC4=CC=CS4)S3)N=C1
Outline: as §1

[6] = compound: C1=CC2=NC=CN=C2C=C1/C=C/3\C(=O)NC(=O)S3
Outline: as §1

[7] = compound: C1=CC=C(C=C1)C2=NC(=C(N2)C3=CC=NC=C3)C4=CC(=C(C=C4)Cl)O
Outline: as §1

[8] = compound: C1=CC=C(C=C1)[C@H](COC2=CC3=C(C=C2)NC(=O)N3)NC(=O)C4=CC=CN(C4=O)CC5=CC(=C(C=C5)F)F
Outline: as §1

[9] = compound: C1=CC=C2C(=C1)C3=NNC4=CC=CC(=C43)C2=O
Outline: as §1

[10] = compound: C1CCN(C1)C(=O)NC2=CC=CC(=C2)NC3=NC=C(C(=N3)NCCC4=CN=CN4)Br
Outline: as §1

[11] = compound: C1CN(CCC1(CC2=CC=C(C=C2)Cl)N)C3=NC=NC4=C3C=CN4
Outline: as §1

[12] = compound: C1COCCN1CCN2C3=CC=CC=C3N=C2NC(=O)C4=CC(=CC=C4)[N+](=O)[O-] [IRAK-1-4 Inhibitor I]
Outline: as §1

[13] = compound: C=CC(=O)N1CCC[C@@H](n2nc(-c3ccc(Oc4ccccc4)cc3)c3c(N)ncnc32)C1 [ibrutinib]
Outline: as §1

[14] = compound: CC(=O)c1cnc2ccc(-c3cc(Cl)c(O)c(Cl)c3)nc2c1N[C@H]1CC[C@H](CN(C)C)CC1
Outline: as §1

[15] = compound: CC(C)(C)Cn1c(N)nc2ccc(-c3[nH]c(C(C)(C)C)nc3-c3ccc(F)cc3)nc21 [ralimetinib]
Outline: as §1

[16] = compound: CC(C)(O)CC(=O)NCCn1ccc2ncnc(Nc3ccc(Oc4cccc(C(F)(F)F)c4)c(Cl)c3)c21
Outline: as §1

[17] = compound: CC(C)C1=C2N=C(C=C(N2N=C1)NCC3=CC=CC=C3)NCCCCCCN
Outline: as §1

[18] = compound: CC(C)C[C@@H](C=O)NC(=O)[C@H](CC(C)C)NC(=O)[C@H](CC(C)C)NC(=O)OCc1ccccc1
Outline: as §1

[19] = compound: CC(C)N(C[C@H]1O[C@@H](n2cnc3c(N)ncnc32)[C@H](O)[C@@H]1O)[C@H]1C[C@@H](CCc2nc3cc(C(C)(C)C)ccc3[nH]2)C1 [pinometostat]
Outline: as §1

[20] = compound: CC1=C(C(CC(=O)N1)C2=CC=C(C=C2)C(F)(F)F)C(=O)NC3=C(C=C4C(=C3)C=NN4)F
Outline: as §1

[21] = compound: CC1=C(C2=C(C=C1)C(=O)C3=CC=CC=C3N2CCCN)C
Outline: as §1

[22] = compound: CC1=C(C=C(C=C1)NC(=O)C2=CC(=CC=C2)C(C)(C)C#N)NC3=CC4=C(C=C3)N=CN(C4=O)C
Outline: as §1

[23] = compound: CC1=C(C=C(C=C1)NC(=O)C2=CC(=CC=C2)N(C)C)NC(=O)C3=CC=C(C=C3)O
Outline: as §1

[24] = compound: CC1=C(SC2=C1C(=N[C@H](C3=NN=C(N32)C)CC(=O)N)C4=CC=C(C=C4)Cl)C
Outline: as §1

[25] = compound: CC1=C2C(=CC=C1)N=C(N(C2=O)C3=CC=CC=C3C)CN4C=NC5=C(N=CN=C54)N
Outline: as §1

[26] = compound: CC1=CC=C(C=C1)SC2=C3C=C(SC3=CN=C2)C(=O)N
Outline: as §1

[27] = compound: CC1=NC(=CC=C1)C2=C(N=C(N2)C(C)(C)C)C3=CC4=NC=CN=C4C=C3
Outline: as §1

[28] = compound: CCCCN(Cc1ccc(C(=O)NO)cc1)C(=O)Nc1ccccc1 [Nexturastat A]
Outline: as §1

[29] = compound: CCCS(=O)(=O)Nc1ccc(F)c(C(=O)c2c[nH]c3ncc(-c4ccc(Cl)cc4)cc23)c1F [vemurafenib]
Outline: as §1

[30] = compound: CCCS(=O)(=O)Nc1ccc(F)c(C(=O)c2c[nH]c3ncc(Cl)cc23)c1F
Outline: as §1

[31] = compound: CCCc1cc(C)[nH]c(=O)c1CNC(=O)c1cc(-c2ccnc(N3CCN(C)CC3)c2)cc2c1cnn2C(C)C
Outline: as §1

[32] = compound: CCN(CC)Cc1ccc2cc(COC(=O)Nc3ccc(C(=O)NO)cc3)ccc2c1 [givinostat]
Outline: as §1

[33] = compound: CCN(CCCOc1ccc2c(Nc3cc(CC(=O)Nc4cccc(F)c4)[nH]n3)ncnc2c1)CCOP(=O)(O)O [barasertib]
Outline: as §1

[34] = compound: CC[C@@H]1C(=O)N(C)c2cnc(Nc3ccc(C(=O)NC4CCN(C)CC4)cc3OC)nc2N1C1CCCC1
Outline: as §1

[35] = compound: CC[C@@H]1C(=O)N(C)c2cnc(Nc3ccc(C(=O)N[C@H]4CC[C@H](N5CCN(CC6CC6)CC5)CC4)cc3OC)nc2N1C(C)C [volasertib]
Outline: as §1

[36] = compound: CC[C@H](C)N1C=C(C2=C(C=C(C=C21)C3=CN=C(C=C3)N4CCNCC4)C(=O)NCC5=C(C=C(NC5=O)C)C)C
Outline: as §1

[37] = compound: CC[C@H](C)[C@@H](C(=O)N[C@@H]([C@@H](C)O)C(=O)N[C@@H](CC(C)C)C(=O)[C@]1(CO1)C)NC(=O)[C@H]([C@@H](C)CC)N(C)C(=O)C [epoxomicin]
Outline: as §1

[38] = compound: CCn1c(C(=O)N(C2CC2)C2CC2)cc2c3c(ncn3C)c(Nc3cc(C)n(C)n3)nc21
Outline: as §1

[39] = compound: CCn1cc(-c2ccnc3[nH]c(-c4cccc(CN(C)C)c4)cc23)c(-c2ccc(NC(=O)N(C)C)cc2)n1
Outline: as §1

[40] = compound: CN(C)CC(=O)Nc1ccc2[nH]c(=O)c3ccccc3c2c1
Outline: as §1

[41] = compound: CN(CCOC1=CC=C(C=C1)C[C@H]2C(=O)NC(=O)S2)C3=CC=CC=N3 (racemic) [rosiglitazone]
Outline: as §1

[42] = compound: CN1C2=C(C3=C1C(=O)N(N=C3)CC4=CC(=CC=C4)N)SC(=C2)S(=O)C
Outline: as §1

[43] = compound: CN1CCC(CNc2ccc3ncc(-c4cccc(OC(F)(F)F)c4)n3n2)CC1
Outline: as §1

[44] = compound: CN1CCN(CCOc2cc(OC3CCOCC3)c3c(Nc4c(Cl)ccc5c4OCO5)ncnc3c2)CC1 [saracatinib]
Outline: as §1

[45] = compound: CN1CCN(c2nc(C3=C(c4c[nH]c5ccccc45)C(=O)NC3=O)c3ccccc3n2)CC1 [sotrastaurin]
Outline: as §1

[46] = compound: CN1CC[C@H](c2c(O)cc(O)c3c(=O)cc(-c4ccccc4Cl)oc23)[C@H](O)C1 [alvocidib]
Outline: as §1

[47] = compound: CN1CCc2c(c3ccccc3n2Cc2ccc(C(=O)NO)cc2)C1 [Tubastatin A]
Outline: as §1

[48] = compound: CNC(=O)C1=CC=CC=C1NC2=NC(=NC=C2Cl)NC3=C(C=C(C=C3)N4CCOCC4)OC
Outline: as §1

Measured: log2 fold change

SARS2 (UniProt Q9NP81)
inactive: [1] 0.027 | [2] 0.036 | [3] 0.022 | [4] 0 | [5] -0.03 | [6] 0.014 | [7] -0.001 | [8] 0.009 | [9] 0.022 | [10] 0.009 | [11] 0 | [12] 0.013 | [13] 0.018 | [14] -0.007 | [15] 0.004 | [16] -0.019 | [17] -0.036 | [18] -0.008 | [19] -0.071 | [20] -0.006 | [21] -0.009 | [22] -0.012 | [23] 0.031 | [24] 0.024 | [25] 0.022 | [26] 0.013 | [27] 0.052 | [28] -0.045 | [29] 0.005 | [30] 0.02 | [31] -0.012 | [32] 0.012 | [33] -0.013 | [34] 0.006 | [35] -0.007 | [36] 0.009 | [37] -0.008 | [38] 0.009 | [39] 0 | [40] -0.009 | [41] 0.008 | [42] -0.04 | [43] -0.024 | [44] 0.023 | [45] 0.005 | [46] -0.063 | [47] -0.016 | [48] -0.01

From the supplement of paper PMC10849652
